Results reported in PubChem BioAssay (Tox21).
Where “and” joins values, the source holds several entries; their conditions need not be identical. Equal values may be shown once. The shares of active, inactive and inconclusive entries below differ from those in the screen. Where a call stands in place of a potency, no number is given. Where the call is inconclusive, the potency comes from a doubtful curve fit. Calls of active or inactive are those of the source. Calls come from the whole dose curve.

By UniProt entry, the sequences of proteins in these tests, tags left out. Where a name states a change or a piece, a line headed by the entry shows the natural chain unless it says otherwise.
UniProt P19793: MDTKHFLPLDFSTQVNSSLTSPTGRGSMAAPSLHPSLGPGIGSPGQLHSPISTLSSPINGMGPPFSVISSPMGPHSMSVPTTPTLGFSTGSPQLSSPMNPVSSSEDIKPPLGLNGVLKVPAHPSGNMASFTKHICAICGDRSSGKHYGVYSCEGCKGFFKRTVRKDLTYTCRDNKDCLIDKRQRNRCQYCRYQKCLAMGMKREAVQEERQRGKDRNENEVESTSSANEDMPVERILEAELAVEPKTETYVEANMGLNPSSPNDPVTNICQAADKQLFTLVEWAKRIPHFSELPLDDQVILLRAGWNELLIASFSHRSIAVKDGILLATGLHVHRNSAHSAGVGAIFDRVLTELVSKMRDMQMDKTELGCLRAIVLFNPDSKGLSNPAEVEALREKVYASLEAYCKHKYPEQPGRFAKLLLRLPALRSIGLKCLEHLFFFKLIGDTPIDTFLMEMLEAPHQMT

Biological target: Retinoic acid receptor RXR-alpha (Homo sapiens) (UniProt P19793)
Test: qHTS assay to identify small molecule agonists of the RXR signaling pathway (AID 1159527); note: nearly all actives have a fitted effect of over 35% in size
Conditions: HEK293T RXRa-UAS-bla, beta-lactamase ratio, 16 h; activation: at 76.8 µM (top of the series) unless noted
In short: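 Agonist mode; 9-cis retinoic acid positive control. HEK 293T UAS-bla reporter cells, 2% charcoal-stripped FBS, 16 hr compound exposure at 37 C/5% CO2. LiveBLAzer B/G FRET substrate 2 hr RT; ex 405, em 460/530 nm.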
Potency is the fitted concentration of half-maximal effect.

C1N2CN3CN1CN(C2)C3
Potency: inactive

O=c1[nH]c2ccccc2c(=O)n1CCCl
Potency: inactive

CCN(O)CC
Potency: inactive

CCCCNc1cc(C(=O)O)cc(S(N)(=O)=O)c1Oc1ccccc1
Potency: inactive

CCCCC(CC)CO (centres undefined)
activation: inconclusive: 13.4% and inconclusive: 22.2%

COc1cc(OC)c(C(=O)CCCN2CCCC2)c(OC)c1
Potency: inactive

CCCCC1CCC(=O)O1 (centres undefined)
Potency: inactive

CCCS(=O)c1ccc2nc(NC(=O)OC)[nH]c2c1 (centres undefined)
Potency: inactive

COS(C)(=O)=O
activation: inconclusive: 26.6% and inconclusive: -14.1%

CC1(C)[C@@H]2CC[C@]3(C2)[C@@H]1C(=O)CCC3(C)C
Potency: inactive

C=CC/C=C/C/C=C/C/C=C/C
Potency: inactive

C[N+](C)(C)CCO
Potency: inconclusive: 49.2 µM [activator, partial curve, poor fit]

O=c1[nH]c2ccc(S(=O)CCN3CCC(Cc4ccc(F)cc4)CC3)cc2o1 (centres undefined)
Potency: inconclusive: 30.9 µM [rising, partial curve, poor fit]

CC1CCN(CCCC(=O)c2ccc(F)cc2)CC1
Potency: inactive

CCCCCCCC(=O)OCC(O)CO (centres undefined)
Potency: inactive

C1=C\CC/C=C\CC/C=C\CC/1
activation: inconclusive: -1.61%

COc1ccc(N)c(OC)c1
activation: inconclusive: -19.2%

CC(C)(O)CCC(C)(C)O
Potency: inactive

CCN1CCC[C@H]1CNC(=O)c1c(OC)ccc(Br)c1OC
activation: inconclusive: 7.7% [at 35.3 µM]

Cc1ccc(N(C)C)cc1
Potency: inactive

Cc1c(I)c(=O)n(-c2ccccc2)n1C
Potency: inactive

C=CC(=O)OCCC(=O)O
Potency: inactive and inconclusive: 54.9 µM [activator]

O=C(O)Cc1c[nH]c2ccccc12
activation: inconclusive: -13.4%

CC(=O)c1cccc([N+](=O)[O-])c1
Potency: inconclusive: 7.74 µM [activator, full curve]

CC(C)(C)C(=O)CC(=O)C(C)(C)C
Potency: inactive

CC(C)OP(=O)(CP(=O)(OC(C)C)OC(C)C)OC(C)C
Potency: inactive

CCCCS(=O)(=O)N[C@@H](Cc1ccc(OCCCCC2CCNCC2)cc1)C(=O)O
Potency: inactive

CC(=O)N[C@@H](CCC(=O)O)C(=O)O
Potency: inactive

CC1(O)CSC(C)(O)CS1 (centres undefined)
Potency: inconclusive: 49 µM [inhibitor, partial curve, poor fit]

CN1[C@@H]2CC[C@H]1CC(OC(=O)c1c[nH]c3ccccc13)C2 (some centres undefined)
Potency: inactive

Cl/C(=C\n1cncn1)c1ccc(Cl)cc1Cl
Potency: inconclusive: 2.13 µM [inhibitor, partial curve, poor fit]

Oc1ccccc1C=NCc1ccccc1
Potency: inactive

CC(C)c1ccccc1C(C)C
Potency: inactive

CCCCCCCC(=O)OCC
Potency: inactive

CC(=O)N(CC(O)CN(C(C)=O)c1c(I)c(C(=O)NCC(O)CO)c(I)c(C(=O)NCC(O)CO)c1I)c1c(I)c(C(=O)NCC(O)CO)c(I)c(C(=O)NCC(O)CO)c1I (centres undefined)
Potency: inactive

COCCOCCOCCOCCOC
Potency: inconclusive: 48.9 µM [activator, partial curve, poor fit]

CCCCCCCCNC
Potency: inconclusive: 30.9 µM [activator, partial curve, poor fit]

COc1ccc(N=Nc2cc(C)c(N=Nc3ccc(S(=O)(=O)O)cc3)cc2OC)cc1
Potency: inactive

Cc1ccc(/C(=C\CN2CCCC2)c2ccccn2)cc1
activation: inconclusive: -0.783% [at 35.3 µM]

c1ccc(C(O[C@H]2CCCN(CCc3ccc4c(c3)OCO4)C2)c2ccccc2)cc1
Potency: inconclusive: 12 µM [inhibitor, partial curve]

CCCC(=O)OC/C=C(\C)CCC=C(C)C
Potency: inactive

Nc1cc([N+](=O)[O-])cc(Cl)c1O
Potency: inactive

ClC(c1ccccc1)(c1ccccc1)c1ccccc1
activation: inconclusive: -13.9%

CCCCC(C=O)CC (centres undefined)
Potency: inactive

CC1=CP(=O)(c2ccccc2)CC1 (centres undefined)
Potency: inactive

N#CCCOCCC#N
Potency: inactive

O=C(O)c1nc(Cl)c(Cl)c(Cl)c1Cl
Potency: inconclusive: 21.9 µM [fluorescent, partial curve]

COc1ccc(C(=O)N2CCN(CC(=O)N3CCOCC3)CC2)cc1
Potency: inconclusive: 8.49 µM [inhibitor, partial curve, poor fit]

O=S1(=O)c2cccc3cccc(c23)N1CCCN1CCN(c2ccc(F)cc2)CC1
activation: inconclusive: -26.7% [at 35.3 µM]
